Results are given in words; binding and its absence hold for the method and conditions named. In cells and extracts the contact can be indirect. Some results given as binding are weak or reduced against the parent protein; the word gives no strength.
Target: Charged multivesicular body protein 5 (human (endogenous in human chondrocytes)) (UniProt Q9NZZ3)
Assay: co-IP; lysates of human chondrocytes treated with IL-1β; supernatants incubated with rabbit anti-CHMP5, anti-IκBα or anti-USP15 antibodies at 4 °C overnight, then protein A agarose beads; western blot

Sequences of proteins named here, by UniProt entry; tags and fusion partners are left off.
UniProt Q9NZZ3: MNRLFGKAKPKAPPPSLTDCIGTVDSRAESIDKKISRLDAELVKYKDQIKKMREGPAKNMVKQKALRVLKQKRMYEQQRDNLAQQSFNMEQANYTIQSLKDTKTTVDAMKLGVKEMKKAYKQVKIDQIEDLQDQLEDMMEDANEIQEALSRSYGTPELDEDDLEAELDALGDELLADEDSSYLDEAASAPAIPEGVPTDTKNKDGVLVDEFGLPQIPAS
UniProt P25963: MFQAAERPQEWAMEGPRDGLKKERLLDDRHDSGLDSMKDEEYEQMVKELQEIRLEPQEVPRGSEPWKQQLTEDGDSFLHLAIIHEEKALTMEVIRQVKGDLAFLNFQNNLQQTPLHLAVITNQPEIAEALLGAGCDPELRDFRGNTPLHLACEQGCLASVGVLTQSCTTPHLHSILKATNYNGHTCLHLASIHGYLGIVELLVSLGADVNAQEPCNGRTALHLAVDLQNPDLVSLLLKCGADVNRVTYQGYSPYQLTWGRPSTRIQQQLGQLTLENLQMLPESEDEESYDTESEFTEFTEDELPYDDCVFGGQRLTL

Row | binding | Molecule
1 | binds | NF-κB inhibitor alpha (from UniProt P25963 1-317)
2 | binds | Ubiquitin specific peptidase 15 (enzyme, UniProt Q9Y4E8 1-981) MAEGGAADLDTQRSDIATLLKTSLRKGDTWYLVDSRWFKQWKKYVGFDSWDKYQMGDQNVYPGPIDNSGLLKDGDAQSLKEHLIDELDYILLPTEGWNKLVSWYTLMEGQEPIARKVVEQGMFVKHCKVEVYLTELKLCENGNMNNVVTRRFSKADTIDTIEKEIRKIFSIPDEKETRLWNKYMSNTFEPLNKPDSTIQDAGLYQGQVLVIEQKNEDGTWPRGPSTPKSPGASNFSTLPKISPSSLSNNYNNMNNRNVKNSNYCLPSYTAYKNYDYSEPGRNNEQPGLCGLSNLGNTCFMNSAIQCLSNTPPLTEYFLNDKYQEELNFDNPLGMRGEIAKSYAELIKQMWSGKFSYVTPRAFKTQVGRFAPQFSGYQQQDCQELLAFLLDGLHEDLNRIRKKPYIQLKDADGRPDKVVAEEAWENHLKRNDSIIVDIFHGLFKSTLVCPECAKISVTFDPFCYLTLPLPMKKERTLEVYLVRMDPLTKPMQYKVVVPKIGNILDLCTALSALSGIPADKMIVTDIYNHRFHRIFAMDENLSSIMERDDIYVFEININRTEDTEHVIIPVCLREKFRHSSYTHHTGSSLFGQPFLMAVPRNNTEDKLYNLLLLRMCRYVKISTETEETEGSLHCCKDQNINGNGPNGIHEEGSPSEMETDEPDDESSQDQELPSENENSQSEDSVGGDNDSENGLCTEDTCKGQLTGHKKRLFTFQFNNLGNTDINYIKDDTRHIRFDDRQLRLDERSFLALDWDPDLKKRYFDENAAEDFEKHESVEYKPPKKPFVKLKDCIELFTTKEKLGAEDPWYCPNCKEHQQATKKLDLWSLPPVLVVHLKRFSYSRYMRDKLDTLVDFPINDLDMSEFLINPNAGPCRYNLIAVSNHYGGMGGGHYTAFAKNKDDGKWYYFDDSSVSTASEDQIVSKAAYVLFYQRQDTFSGTGFFPLDRETKGASAATGIPLESDEDSNDNDNDIENENCMHTN
